Data published in patent US20250352528A1, “TOPICAL ROSIGLITAZONE FOR RADIATION-INDUCED SKIN INJURY” (The Brigham and Women's Hospital, Inc., priority 2022, published 2025).
At least one compound was matched to its structure with a doubt left.

System: PDGFRα+ cells, Ki67, PPARg
Experiment: Immunofluorescence staining of hindlimb sections after lymphadenectomy
Format: in vivo, mouse
[1] = v. no rosiglitazone, FIG. 4 Panel A

Compound: CN(CCOc1ccc(CC2SC(=O)NC2=O)cc1)c1ccccn1 (stereo not drawn) [rosiglitazone]
- PPARg levels (immunostaining) (rosiglitazone-treated mice, FIG. 7): PPARg levels were not reduced
- Presence of PDGFRα+ cells (immunostaining) [1]: reduction in the presence of PDGFRα+ cells
- Presence of PDGFRα+Ki67+ cells (immunostaining) [1]: corresponding reduction in PDGFRα+Ki67+ cells
